{"source": "PubChem BioAssay AID1259254 – NCATS | 2017", "screen": "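Genome-wide screen for genes that prevent DNA re-replication in cancer cells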 (primary screen)", "system": "human HCT116 colorectal cancer cells", "knock-down reagent": "single siRNA against human genes", "timing": "3 days", "detection": "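Nuclei stained with Hoechst and imaged; cell-cycle phase assigned by DNA content; G2 share scaled per plate, non-targeting siRNA 0%, GMNN siRNA 100%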", "direction": "G2 robust z-score: higher = more G2 cells, more excess DNA replication", "rule for the call": "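An siRNA counts as active if its G2 robust z-score lies at least 5 MADs above the screen median; here such calls match roughly 38% of GMNN control or more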", "note": "Shown is one part, drawn at random, of about 59,000 deposited reagents. About 1,550 of all reagents (2.6%) were called active. 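G2 share is only a proxy for re-replication; each gene was hit by three separate siRNAs, and active genes were retested.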 Reagents against one gene are numbered here. Not all columns of the deposit are shown. The record does not give: the amount of reagent."}
{"Target gene":"BLOC1S5 (GeneID 63915)","reagent":1,"G2 robust z-score":1.26,"activity call":"inactive"}
{"Target gene":"BLOC1S5 (GeneID 63915)","reagent":2,"G2 robust z-score":-0.89,"activity call":"inactive"}
{"Target gene":"BLOC1S5 (GeneID 63915)","reagent":3,"G2 robust z-score":-0.194,"activity call":"inactive"}
{"Target gene":"MYO19 (GeneID 80179)","reagent":1,"G2 robust z-score":-0.565,"activity call":"inactive"}
{"Target gene":"MYO19 (GeneID 80179)","reagent":2,"G2 robust z-score":15.5,"activity call":"active"}
{"Target gene":"MYO19 (GeneID 80179)","reagent":3,"G2 robust z-score":-0.898,"activity call":"inactive"}
{"Target gene":"CMKLR1 (GeneID 1240)","reagent":1,"G2 robust z-score":0.0308,"activity call":"inactive"}
{"Target gene":"CMKLR1 (GeneID 1240)","reagent":2,"G2 robust z-score":-0.155,"activity call":"inactive"}
{"Target gene":"CMKLR1 (GeneID 1240)","reagent":3,"G2 robust z-score":6.2,"activity call":"active"}
{"Target gene":"CD4 (GeneID 920)","reagent":1,"G2 robust z-score":0.131,"activity call":"inactive"}
{"Target gene":"CD4 (GeneID 920)","reagent":2,"G2 robust z-score":-0.459,"activity call":"inactive"}
{"Target gene":"CD4 (GeneID 920)","reagent":3,"G2 robust z-score":2.19,"activity call":"inactive"}
{"Target gene":"ALOX12B (GeneID 242)","reagent":1,"G2 robust z-score":-0.667,"activity call":"inactive"}
{"Target gene":"ALOX12B (GeneID 242)","reagent":2,"G2 robust z-score":0.611,"activity call":"inactive"}
{"Target gene":"ALOX12B (GeneID 242)","reagent":3,"G2 robust z-score":-0.996,"activity call":"inactive"}
{"Target gene":"MAP4K1 (GeneID 11184)","reagent":1,"G2 robust z-score":0.017,"activity call":"inactive"}
{"Target gene":"MAP4K1 (GeneID 11184)","reagent":2,"G2 robust z-score":-0.0427,"activity call":"inactive"}
{"Target gene":"MAP4K1 (GeneID 11184)","reagent":3,"G2 robust z-score":-0.859,"activity call":"inactive"}
{"Target gene":"ZBTB25 (GeneID 7597)","reagent":1,"G2 robust z-score":-0.532,"activity call":"inactive"}
{"Target gene":"ZBTB25 (GeneID 7597)","reagent":2,"G2 robust z-score":-0.784,"activity call":"inactive"}
{"Target gene":"ZBTB25 (GeneID 7597)","reagent":3,"G2 robust z-score":0.312,"activity call":"inactive"}
{"Target gene":"EMC1 (GeneID 23065)","reagent":1,"G2 robust z-score":1.36,"activity call":"inactive"}
{"Target gene":"EMC1 (GeneID 23065)","reagent":2,"G2 robust z-score":1.78,"activity call":"inactive"}
{"Target gene":"EMC1 (GeneID 23065)","reagent":3,"G2 robust z-score":-0.224,"activity call":"inactive"}
